We go through three molecules from article PMC12782891.

No constants are given. Whether binding was seen depends on the method and setting. For part of these data: Binding seen in cells or lysates may run through a third protein. Some results given as binding are weak or reduced against the parent protein; the word gives no strength. Tags and fused reporters may be left off the sequences shown.

For assay [1], the target named is T1, GST-OsABI5 (rice (Oryza sativa L.)) (UniProt Q8RZ35).
T1 sequence: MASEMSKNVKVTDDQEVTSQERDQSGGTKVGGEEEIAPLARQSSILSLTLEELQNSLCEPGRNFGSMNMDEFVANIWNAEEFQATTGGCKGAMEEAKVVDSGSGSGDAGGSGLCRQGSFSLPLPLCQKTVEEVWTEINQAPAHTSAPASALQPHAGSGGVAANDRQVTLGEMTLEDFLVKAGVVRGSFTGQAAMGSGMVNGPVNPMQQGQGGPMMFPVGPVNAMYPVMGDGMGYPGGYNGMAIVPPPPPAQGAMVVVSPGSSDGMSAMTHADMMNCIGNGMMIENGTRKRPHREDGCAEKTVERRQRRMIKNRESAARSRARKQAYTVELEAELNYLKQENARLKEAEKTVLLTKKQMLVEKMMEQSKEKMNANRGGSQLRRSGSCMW
Put plainly: pull-down; purified His-OsSLR1 incubated with GST-OsABI5 or GST alone at 4°C for 3 h; pull-down with GST beads; immunoblot with anti-His and anti-GST; both purified.

Assay [2] deals with T2, OsABI5-MYC (rice (Oryza sativa L.)) (UniProt Q8RZ35).
T2 sequence: T1 sequence
Put plainly: co-IP; protein extracts of 2-d-old OsABI5-MYC or Nip seedlings; MYC-agarose beads, 4°C, 2 h; IP buffer 50 mmol/L Tris-HCl pH 7.5, 150 mmol/L NaCl, 5 mmol/L EDTA, 0.1% NP-40; blot with anti-MYC and anti-OsSLR1.

In assay [3] the target is T3, OsABI5-nYFP (rice (Oryza sativa L.)) (UniProt Q8RZ35).
T3 sequence: T1 sequence
In words: split reporter; BiFC with nYFP and cYFP fusions co-expressed in Nicotiana benthamiana leaves, 2 d after infiltration, confocal microscopy.

B1: His-OsSLR1 (protein, UniProt Q7G7J6 1-625)
chain: MKREYQEAGGSSGGGSSADMGSCKDKVMAGAAGEEEDVDELLAALGYKVRSSDMADVAQKLEQLEMAMGMGGVSAPGAADDGFVSHLATDTVHYNPSDLSSWVESMLSELNAPLPPIPPAPPAARHASTSSTVTGGGGSGFFELPAAADSSSSTYALRPISLPVVATADPSAADSARDTKRMRTGGGSTSSSSSSSSSLGGGASRGSVVEAAPPATQGAAAANAPAVPVVVVDTQEAGIRLVHALLACAEAVQQENFAAAEALVKQIPTLAASQGGAMRKVAAYFGEALARRVYRFRPADSTLLDAAFADLLHAHFYESCPYLKFAHFTANQAILEAFAGCHRVHVVDFGIKQGMQWPALLQALALRPGGPPSFRLTGVGPPQPDETDALQQVGWKLAQFAHTIRVDFQYRGLVAATLADLEPFMLQPEGEADANEEPEVIAVNSVFELHRLLAQPGALEKVLGTVHAVRPRIVTVVEQEANHNSGSFLDRFTESLHYYSTMFDSLEGGSSGQAELSPPAAGGGGGTDQVMSEVYLGRQICNVVACEGAERTERHETLGQWRNRLGRAGFEPVHLGSNAYKQASTLLALFAGGDGYRVEEKEGCLTLGWHTRPLIATSAWRVAAA
Consider B1, for which the binding entry in assay [1] is reported as “binds”.

B2: endogenous OsSLR1 (protein, UniProt Q7G7J6 1-625)
chain: B1 chain
Take B2: in assay [2], the binding entry is on record as “binds”.

B3: OsSLR1-cYFP (protein, UniProt Q7G7J6 1-625)
chain: B1 chain
As for B3, in assay [3], the binding result is recorded as “binds”.
